SMILES strings stand for the structures. The list shows a part of the results. The main result of the screen is listed elsewhere. These columns were measured beside it and carry no call. Compounds called inactive in the main read-out are mostly missing here. Potencies come from curve fits of mixed quality, noted in brackets.

From PubChem BioAssay AID1487 (National Center for Advancing Translational Sciences (NCATS), 2009) come the findings set out here.

This experiment is described as follows: qHTS Assay for Modulators of Lamin A Splicing. The following applies: HeLa LMNA splicing GFP/RFP minigene ratio, 48 h. The method in brief: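 S3 HeLa stable clones carrying a lamin A-EGFP splicing minigene plus DsRed2 were seeded at 600 cells/well in Opti-MEM with 2% FBS, pin-dosed and incubated 48 h at 37°C. Acumen cytometry (488 nm) gave the GFP/RFP total-intensity ratio.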
In general terms: Quantitative high-throughput screening tests each substance at several concentrations.

[1] abbreviates: measured here: GFP splicing reporter channel.
The mark [2] stands for this setting: measured here: RFP viability control channel.

For the compound `COc1ccc(Cn2c(SCc3cc(C)ccc3C)nc3cc(OC)c(OC)cc3c2=N)cc1`, the AC50 runs as follows: under setting [1], 15.8 µM [falling, single point]; under setting [2], 35.5 µM [falling, single point].

In the case of `CN1CCc2c(sc(NC(=O)CSc3ccc(F)cc3)c2-c2nc3ccccc3s2)C1`, under setting [1], the AC50 was 11.2 µM [rising, partial curve].

With `CCOc1cc(CNc2ccccc2)cc(Br)c1OCc1ccc(F)cc1`, the concentration at half-maximal activity (AC50) under setting [2] is 35.5 µM [rising, single point].

For `S=C(NCC1CCCO1)N1CCN(c2nc(-c3ccc(Cl)cc3)cs2)CC1` (stereo not drawn), under setting [1], the AC50 is 35.5 µM [rising, single point].

In the case of `O=C(CCCCCN1C(=O)c2ccccc2C1=O)Oc1ccc2c3c(c(=O)oc2c1)CCC3`, the AC50 under setting [1] is 35.5 µM [falling, single point].

Turning to `CCN(CC)c1ccc(C(=O)N/N=C(\C)c2ccc(O)cc2)cc1`, the AC50 runs as follows: under setting [1], 31.6 µM [falling, single point]; under setting [2], 35.5 µM [falling, single point].

`Cn1nc(C(C)(C)C)cc1C(=O)NCc1ccc(N2CCCC2=O)cc1`: the AC50 under setting [2] was 2 µM [rising, full curve].

As to `COc1ccc(/C=N/NC(=O)c2ccn[nH]2)cc1COc1ccc(Cl)cc1Cl`, the AC50 under setting [2] was 28.2 µM [rising, single point].

`Cc1ccc(C)c(N2CCN(C(=O)CCNS(=O)(=O)c3ccc4c(c3)CCN4C(=O)C3CC3)CC2)c1`: the AC50 reads like this: under setting [1], 35.5 µM [falling, partial curve]; under setting [2], 35.5 µM [falling, partial curve, poor fit].

Take `O=C(C1CCC(Cn2c(=O)c3sccc3n(Cc3ccccc3)c2=O)CC1)N1CCCCC1` (stereo not drawn): the AC50 under setting [2] was 35.5 µM [falling, single point].

With `Cc1ccc(C(=O)N2CCN(S(=O)(=O)N3CCOCC3)CC2)cc1`, under setting [1], the AC50 is 2 µM [rising, single point].

As for `COc1ccc(OC)c(NC(=O)CC2C(=O)NCCN2C(=O)C(F)(F)F)c1` (stereo not drawn), the AC50 under setting [2] is 0.00447 µM [falling, full curve, poor fit].

As for `COc1ccc2c(=O)c(Oc3ccc(C(=O)O)cc3)c(C(F)(F)F)oc2c1`, the AC50 under setting [1] was 0.0282 µM [falling, full curve, poor fit].

For the compound `COc1ccc(Br)cc1C(=O)Nc1cccc(NC(=O)c2ccco2)c1`, the AC50 under setting [2] was 14.1 µM [rising, single point].

Turning to `O=C(Nc1c(C(=O)O)[nH]c2ccccc12)NC1CCCCC1`, the AC50 under setting [2] is 0.0355 µM [falling, full curve, poor fit].

Regarding `O=C(c1cccc(S(=O)(=O)NCCOc2ccccc2)c1)N1CCN(c2ncccn2)CC1`, the AC50 is, setting by setting: under setting [1], 4.47 µM [rising, partial curve]; under setting [2], 17.8 µM [rising, partial curve].

For `COc1ccccc1N(CC(=O)Nc1ccc(S(=O)(=O)N2CCCCC2)cc1)S(C)(=O)=O`, the AC50 under setting [2] was 15.8 µM [rising, single point].

As to `Cc1ccc(NC(=O)c2cnc(SCC(=O)N3CCOCC3)n(C)c2=O)cc1C`, the AC50 is 2.51 µM [falling, partial curve] under setting [1] and 35.5 µM [falling, single point] under setting [2].

As for `O=C(CCCc1nc(-c2ccc(Cl)cc2)no1)N1CCOCC1`, under setting [2], the AC50 is 12.6 µM [rising, partial curve].

On to `CCCc1cc(-c2n[nH]c(C)c2-c2ccc(C(=O)OCC)o2)c(O)cc1O`, for which the AC50 under setting [2] is 12.6 µM [rising, single point].

On to `CCn1c(=O)c(C(=O)Nn2c(C)nc3ccccc3c2=O)c(O)c2ccccc21`, for which the AC50 under setting [1] was 25.1 µM [rising, single point] and the AC50 under setting [2] is 20 µM [rising, single point].

For `S=C(NCCc1ccccc1)NC1CCCCCC1`, the AC50 under setting [2] was 12.6 µM [rising, partial curve, poor fit].

With `CN(C(=O)CSc1nnc(-c2ccc(F)cc2)c2ccccc12)C1CCS(=O)(=O)C1` (stereo not drawn), the AC50 under setting [2] is 11.2 µM [rising, partial curve].

Take `CNS(=O)(=O)c1cccc(C(=O)Nc2cccc(Cl)c2)c1`: the AC50 under setting [2] was 35.5 µM [rising, single point].

In the case of `COc1ccc(NC(=O)c2cc3n(n2)C(C(F)(F)F)CC(c2ccc4c(c2)OCO4)N3)cc1OC` (stereo not drawn), under setting [2], the AC50 is 0.562 µM [rising, full curve, poor fit].

As for `NC(CCC(=O)N[C@@H](CS)C(=O)NCC(=O)O)C(=O)O` (stereo partly drawn), the AC50 is 0.00316 µM [falling, full curve, poor fit] under setting [1] and 14.1 µM [rising, single point] under setting [2].

On to `COC(=O)CN1C(=O)CSc2ccc(S(=O)(=O)Nc3ccc(C(C)=O)cc3)cc21`, for which the AC50 under setting [2] is 1.26 µM [falling, partial curve].

Take `CC(C)(CNc1ccc([N+](=O)[O-])cc1Cl)CNS(C)(=O)=O`: the AC50 by setting is: under setting [1], 15.8 µM [rising, single point]; under setting [2], 11.2 µM [rising, single point].

Turning to `CCOC(=O)c1cnc2c(OC)cccc2c1N1CCN(c2ccc(OC)cc2)CC1`, the AC50 under setting [2] was 10 µM [rising, partial curve].

On to `Cc1ccc(COCC(CC(C)C)N2CCN(C(=O)c3cccc(C(F)(F)F)c3)CCC2=O)cc1` (stereo not drawn), for which the AC50 is, setting by setting: under setting [1], 14.1 µM [rising, partial curve, poor fit]; under setting [2], 14.1 µM [rising, partial curve].

As to `O=C(Nc1ccccc1C(=O)NCc1ccccc1)c1ccccc1Br`, the AC50 under setting [2] is 35.5 µM [rising, single point].

With `COc1ccc(S(=O)(=O)NCCc2csc3nc(-c4cccc(C)c4)nn23)cc1F`, the AC50 by setting is: under setting [1], 0.00355 µM [falling, full curve, poor fit]; under setting [2], 0.00447 µM [falling, full curve, poor fit].

`Cc1ccc([N+](=O)[O-])cc1S(=O)(=O)N1CCC(C)CC1`: the AC50 under setting [1] was 0.0447 µM [rising, partial curve, poor fit] and the AC50 under setting [2] is 0.178 µM [rising, partial curve].

As for `COc1ccccc1NC(=O)CSc1nnc(NC(=O)Nc2ccc(C)cc2)s1`, the AC50 is 35.5 µM [falling, single point] under setting [1] and 35.5 µM [falling, single point] under setting [2].

For the compound `Cc1ccc(S(=O)(=O)N2CCCc3cc(NS(=O)(=O)c4cccc(Cl)c4)ccc32)cc1`, the half-maximal activity concentration (AC50) reads like this: under setting [1], 11.2 µM [rising, single point]; under setting [2], 15.8 µM [rising, single point].

Broadly, the AC50 is the midpoint of the concentration-response curve, whichever way the signal moves.
